PubChem BioAssay AID1224830 – NIAID – 2016
Screen: 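Regulators of TLR4 signalling towards TNF-alpha in macrophage-like cells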 (primary screen). Cell system: human THP-1 monocytic leukaemia cells, TNF dual-luciferase reporter clone, PMA-differentiated to macrophage-like cells. Reagents: siRNA pool against human genes, 50 nM. Duration: LPS for 4 h, given about 3 days after siRNA transfection. Treatment: bacterial LPS (TLR4 ligand), 10 ng/ml. Read-out: 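Ratio of firefly to renilla light, scaled to the plate median and expressed as a robust z-score per replicate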. Direction: TNF reporter robust z-score: higher = stronger TNF reporter response to LPS. Rule for the call: 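Each well counts as active if its z-score is over 2.8 or under -1.5; controls are left without a call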.
This is an unselected part of about 18,000 reagents tested. Over the whole deposit, about 2,900 (16%) are marked active. 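Calls are made per well; low scores hint the gene aids the LPS response, high scores that it dampens it.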 Repeated entries: four replicate wells of each siRNA pool. No sequences are given here.

| TNF reporter robust z-score | Outcome | gene knocked down |
| --- | --- | --- |
| -0.87 | inactive | IFNA14 |
| -0.63 | inactive | IFNA14 |
| -1.25 | inactive | IFNA14 |
| -0.66 | inactive | IFNA14 |
| 1.84 | inactive | TTLL1 |
| 2.02 | inactive | TTLL1 |
| 1.75 | inactive | TTLL1 |
| 2.2 | inactive | TTLL1 |
| 0.22 | inactive | CD24 |
| 1.88 | inactive | CD24 |
| -0.85 | inactive | CD24 |
| -0.19 | inactive | CD24 |
| -1.28 | inactive | SCEL |
| -0.09 | inactive | SCEL |
| -1.01 | inactive | SCEL |
| 0.18 | inactive | SCEL |
| -1.08 | inactive | HLA-DOA |
| -0.56 | inactive | HLA-DOA |
| -0.44 | inactive | HLA-DOA |
| -0.48 | inactive | HLA-DOA |
| -2.23 | active | JUN |
| -1.71 | active | JUN |
| -1.75 | active | JUN |
| -2 | active | JUN |
| -1 | inactive | ANKRD16 |
| -0.61 | inactive | ANKRD16 |
| -0.48 | inactive | ANKRD16 |
| 0.14 | inactive | ANKRD16 |
| -0.17 | inactive | RDH14 |
| 0.19 | inactive | RDH14 |
| -0.94 | inactive | RDH14 |
| 0.93 | inactive | RDH14 |
| 0.15 | inactive | CUL9 |
| 0.14 | inactive | CUL9 |
| -0.5 | inactive | CUL9 |
| -1.38 | inactive | CUL9 |
| -2.12 | active | PLPPR2 |
| -1.85 | active | PLPPR2 |
| -2.07 | active | PLPPR2 |
| -0.61 | inactive | LRBA |
| -0.49 | inactive | LRBA |
| 0.21 | inactive | LRBA |
| -0.22 | inactive | LRBA |
| -1.5 | inactive | DAZAP1 |
| -0.06 | inactive | DAZAP1 |
| -0.34 | inactive | DAZAP1 |
| -0.84 | inactive | DAZAP1 |
| -0.7 | inactive | CRNN |
| -0.94 | inactive | CRNN |
| -1.28 | inactive | CRNN |
| -1.27 | inactive | CRNN |
| 2.07 | inactive | COPZ2 |
| 0.25 | inactive | COPZ2 |
| 0.52 | inactive | COPZ2 |
| 0.56 | inactive | COPZ2 |

Entries listed so far whose target name begins with A or a (4):
| TNF reporter robust z-score | Outcome | gene knocked down |
| --- | --- | --- |
| -1 | inactive | ANKRD16 |
| -0.61 | inactive | ANKRD16 |
| -0.48 | inactive | ANKRD16 |
| 0.14 | inactive | ANKRD16 |

More results follow:
| TNF reporter robust z-score | Outcome | gene knocked down |
| --- | --- | --- |
| 0.13 | inactive | PFKM |
| 0.83 | inactive | PFKM |
| 0.02 | inactive | PFKM |
| 0.63 | inactive | PFKM |
| -0.58 | inactive | CCR3 |
| 0.19 | inactive | CCR3 |
| -0.42 | inactive | CCR3 |
| -0.54 | inactive | CCR3 |
| 0.52 | inactive | NAXD |
| 0.22 | inactive | NAXD |
| -0.56 | inactive | NAXD |
| 0.94 | inactive | NAXD |
| -1.07 | inactive | PABPC5 |
| -1.04 | inactive | PABPC5 |
| -0.76 | inactive | PABPC5 |
| 0.44 | inactive | PABPC5 |
| 1.16 | inactive | ZNF546 |
| 0.05 | inactive | ZNF546 |
| 1.22 | inactive | ZNF546 |
| -1.07 | inactive | ZNF546 |
| -0.17 | inactive | RAD17 |
| 0.17 | inactive | RAD17 |
| -0.06 | inactive | RAD17 |
| 0.22 | inactive | RAD17 |
| -1.13 | inactive | TOB1 |
| -0.78 | inactive | TOB1 |
| 0.09 | inactive | TOB1 |
| -0.37 | inactive | TOB1 |
| 0.79 | inactive | CCL20 |
| 1.6 | inactive | CCL20 |
| 0.83 | inactive | CCL20 |
| 2.06 | inactive | CCL20 |
| 1.79 | inactive | OTOF |
| 1.55 | inactive | OTOF |
| 1.25 | inactive | OTOF |
| 2.55 | inactive | OTOF |
| 0.06 | inactive | OPRL1 |
| 0.29 | inactive | OPRL1 |
| 0.82 | inactive | OPRL1 |
| 0.08 | inactive | OPRL1 |
| – | inactive | GRAP2 |
| 0.07 | inactive | GRAP2 |
| -0.32 | inactive | GRAP2 |
| -0.23 | inactive | GRAP2 |
| 0.12 | inactive | TBC1D8 |
| 0.04 | inactive | TBC1D8 |
| -0.47 | inactive | TBC1D8 |
| -0.19 | inactive | TBC1D8 |
| -0.07 | inactive | MANEA |
| 0.15 | inactive | MANEA |
| 0.11 | inactive | MANEA |
| 0.72 | inactive | MANEA |
| -0.57 | inactive | CCR6 |
| -0.26 | inactive | CCR6 |
| -0.27 | inactive | CCR6 |
| 0.46 | inactive | CCR6 |
| -1.28 | inactive | MIER2 |
| -0.08 | inactive | MIER2 |
| -1.2 | inactive | MIER2 |
| -0.49 | inactive | MIER2 |
| -1.45 | inactive | GNAT2 |
| -1.41 | inactive | GNAT2 |
| -1.63 | active | GNAT2 |
| -2 | active | GNAT2 |
| -1.24 | inactive | S100PBP |
| -0.7 | inactive | S100PBP |
| -1.28 | inactive | S100PBP |
| -0.52 | inactive | S100PBP |
| 1.47 | inactive | CEL |
| 0.53 | inactive | CEL |
| 0.44 | inactive | CEL |
| 0.22 | inactive | CEL |
| 0.1 | inactive | GDPD5 |
| -0.53 | inactive | GDPD5 |
| 0.05 | inactive | GDPD5 |
| -0.25 | inactive | GDPD5 |
| 0.77 | inactive | SUGCT |
| -0.15 | inactive | SUGCT |
| 2.52 | inactive | SUGCT |
| 0.26 | inactive | SUGCT |
| -0.91 | inactive | RNF214 |
| -1.33 | inactive | RNF214 |
| -1.93 | active | RNF214 |
| -2.06 | active | RNF214 |
| 0.06 | inactive | DTNBP1 |
| -0.65 | inactive | DTNBP1 |
| 0 | inactive | DTNBP1 |
| 0.6 | inactive | DTNBP1 |
